# Measurements from PubChem BioAssay AID602313 (National Center for Advancing Translational Sciences (NCATS), 2012).
# Hit rate of the full screen: of about 390,000 compounds, about 760 (0.19%) were called active. Inconclusive means that the source gave no clear call. Such entries were picked first, then a sample of the others. Calls follow the shape of the dose curve; as a rule, active = well fitted inhibition curve with a large enough effect; inconclusive = small, poorly fitted or top-dose-only effect; inactive = flat fitted curve, though single readings scatter. Where the call is inconclusive, the potency comes from a doubtful curve fit.
# Assay: qHTS for Inhibitors of Vif-A3F Interactions: qHTS; also: nearly all actives have a fitted effect of over 65% in size; as to activity, negative = active: % of control where 0% means no effect
# Settings: HeLa A3F-eYFP + Vif (tagged APOBEC3F with the HIV-1 protein that degrades it), YFP fluorescence increase; series mostly up to 46.1 µM; activity, negative = active: at the top concentration
# Procedure, shortened: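 Fluorescence increase (Ex 488/Em 500-530) after overnight compound treatment at 37 deg C flags inhibition of Vif-driven A3F-eYFP loss in stable HeLa A3F-eYFP/Vif cells seeded overnight beforehand.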
# Potency is read from the fitted curve at half-maximal effect.
Structure (SMILES),Potency,"activity, negative = active"
O=C(COC(=O)/C=C/c1ccc(C(F)(F)F)cc1)NCC1CCCCC1,"inconclusive: 35.5 µM [inhibitor, single point]",
O=C1CCC[C@H]2c3[nH]c4ccccc4c3CCN12,"inconclusive: 20 µM [inhibitor, single point]",
N#Cc1ccc2sn(-c3ccccc3)c(=O)c2c1,"inconclusive: 35.5 µM [inhibitor, single point]",
Cc1ccc(C)c(S(=O)(=O)Nc2ccc(C(=O)N3CCCCC3)cc2)c1,"inconclusive: 2.51 µM [inhibitor, partial curve, poor fit]",
C=CCC1(CC=C)CCCN1Cc1nc(COc2ccccc2)no1,"inconclusive: 22.4 µM [inhibitor, single point]",
O=C1C2C3C=CC(C4CC34)C2C(=O)N1/N=C/c1ccc(-c2ccc([N+](=O)[O-])cc2)o1 (centres undefined),"inconclusive: 25.1 µM [inhibitor, single point]",
Cc1c(NC(=O)c2cc(-n3cnnc3)ccc2Cl)cccc1-c1nc2ccccc2o1,"inconclusive: 15.8 µM [inhibitor, partial curve, poor fit]",
COc1ccc(COc2cc(-c3cccc(OC)c3)nc3ccc(NC(=O)c4ccc(C)cc4)cc23)cc1,,inactive: -2.21%
CCC(=O)Nc1ccccc1-c1nc2ccccc2n(C(C)C(=O)Nc2cccc(Cl)c2C)c1=O (centres undefined),"inconclusive: 35.5 µM [inhibitor, single point]",
CC1(C)CC(=O)c2c(noc2-c2ccccc2)C1,"inconclusive: 6.31 µM [inhibitor, single point]",
COc1ccc(Cl)cc1N1C(=O)/C(=C/c2sccc2C)N=C1SCC(=O)NC1CC1,"inconclusive: 35.5 µM [inhibitor, partial curve, poor fit]",
CN(Cc1nc2ccccc2[nH]1)C(=O)C1CCC(=O)N(CCc2cccc(F)c2)C1 (centres undefined),"inconclusive: 35.5 µM [inhibitor, single point]",
N#Cc1c(N)n(-c2ccc(C(=O)O)cc2)c2nc3ccccc3nc12,"inconclusive: 15.8 µM [inhibitor, single point]",
O=C(NCCCc1nc2ccccc2[nH]1)c1cccs1,"inconclusive: 10 µM [inhibitor, partial curve, poor fit]",
Cc1cc(NC(=O)c2oc3c(c2C)-c2[nH]ncc2CC3)ccc1Br,"inconclusive: 10 µM [inhibitor, partial curve, poor fit]",
Cc1ccccc1N1C(=O)Cc2ccccc2C1=O,,inactive: -6.19%
Fc1ccc(CNc2nc(-c3ccc(Cl)cc3)cc(C(F)(F)F)n2)cc1,"inconclusive: 35.5 µM [inhibitor, single point]",
NC(N)=N/N=C/c1ccccc1OC(F)F,"inconclusive: 4.47 µM [inhibitor, full curve, poor fit]",
Cc1ccccc1Nc1nc(N)nc(CN2CCN(C(=O)c3ccccc3)CC2)n1,"inconclusive: 35.5 µM [inhibitor, single point]",
CCOC(=O)c1cnc(Nc2nc3ccccc3o2)nc1CSc1ncccn1,"inconclusive: 6.31 µM [inhibitor, single point]",

Structure (SMILES),Potency,"activity, negative = active"
CCN1CCN(c2ccc(S(=O)(=O)N3CCCCC3)cc2NC(=O)/C=C/c2cc(OC)ccc2OC)CC1,"inconclusive: 8.91 µM [inhibitor, partial curve, poor fit]",
O=C(c1ccccc1)c1ccccc1C(=O)c1ccccc1,"inconclusive: 10 µM [inhibitor, partial curve, poor fit]",
CCn1c(Oc2ccccc2C)nc2c1c(=O)n(C)c(=O)n2C,"inconclusive: 35.5 µM [inhibitor, single point]",
Nc1[nH]c2cc([N+](=O)[O-])ccc2c1-c1ccccn1,active: 10 µM,
COc1ccc(-n2ncc3c(N4CCN(Cc5ccccc5)CC4)ncnc32)cc1,,inactive: 9.48%
CCCN1C(=O)/C(=C/c2ccc(N3CCOCC3)cc2)NC1=S,"inconclusive: 20 µM [inhibitor, partial curve, poor fit]",
C/C(=N\NC(=S)NC(C)C)c1ccccc1,"inconclusive: 17.8 µM [inhibitor, partial curve, poor fit]",
CCNC(=S)NNc1ccccc1,"inconclusive: 22.4 µM [inhibitor, single point]",
COC(=O)c1cc(NS(=O)(=O)c2ccc(NC(C)=O)cc2)ccc1Cl,"inconclusive: 12.6 µM [inhibitor, single point]",
COc1ccc2nc(C)cc(N/N=C/c3ccccc3)c2c1,"inconclusive: 17.8 µM [inhibitor, single point]",
Cc1ccc(S(=O)(=O)/N=C2/NC(=O)/C(=C\c3cc(Br)cc(Br)c3O)S2)cc1,"inconclusive: 15.8 µM [inhibitor, partial curve, poor fit]",
O=C(NC(=S)Nc1ccccc1N1CCCC1)c1ccc(F)cc1,"inconclusive: 35.5 µM [inhibitor, single point]",
COc1cc(C(=O)OCC(=O)Nc2ccc(N3CCOCC3)cc2)ccc1OCC(C)C,"inconclusive: 25.1 µM [inhibitor, single point]",
CCCCn1c(N)c(N(CCOC)C(=O)CC(NC(=O)c2ccccc2)c2ccccc2)c(=O)[nH]c1=O (centres undefined),"inconclusive: 3.16 µM [inhibitor, partial curve, poor fit]",
Cc1cc(/C=C(\C#N)C(=O)NCCc2c[nH]c3ccccc23)c(C)n1C,"inconclusive: 5.62 µM [inhibitor, single point]",
Cc1cc2c(c(=O)o1)C(c1ccc([N+](=O)[O-])o1)C(C#N)=C(N)O2 (centres undefined),"inconclusive: 10 µM [inhibitor, partial curve, poor fit]",
CN(C)c1cccc(C(=O)OCc2cc(=O)oc3cc(O)ccc23)c1,"inconclusive: 14.1 µM [inhibitor, single point]",
CCN(C(=O)c1cccs1)c1nc(-c2ccc(OC)cc2)cs1,,inactive: 8.61%
CN(C)c1ccc(/C=C(\Cl)c2nc3ccccc3s2)cc1,"inconclusive: 25.1 µM [inhibitor, single point]",

# Part of the list above, set out differently:
Structure (SMILES) | Potency | activity, negative = active
CC1(C)CC(=O)c2c(noc2-c2ccccc2)C1 | inconclusive: 6.31 µM [inhibitor, single point] | 
COc1ccc(Cl)cc1N1C(=O)/C(=C/c2sccc2C)N=C1SCC(=O)NC1CC1 | inconclusive: 35.5 µM [inhibitor, partial curve, poor fit] | 
